This is one part of the list. Further columns of the screen follow, without active or inactive calls. Most of these compounds were active or inconclusive in the main read-out, so they are no random draw. Potencies come from curve fits of mixed quality, noted in brackets.
Experiment: qHTS Assay for Identifying the Cell-Membrane Permeable IMPase Inhibitors
Details: CHO-M1 cells, IP1 accumulation, HTRF TR-FRET ratio; measured here: donor channel 620 nm AC50

Row | SMILES | AC50
1 | O=C1c2ccccc2C(=O)N1CCc1csc(-c2cccc(F)c2)n1 | 12.6 µM [rising, single point]
2 | Cn1c(/N=C/c2ccc3c(c2)OCO3)nc2ccccc21 | 0.0631 µM [rising, full curve, poor fit]
3 | O=c1cc(COn2nnc3ccc(C(F)(F)F)cc32)nc2sccn12 | 0.251 µM [falling, single point]
4 | COc1ccc(S(=O)(=O)Nc2ccc(NC(C)=O)cc2)cc1 | 3.16 µM [falling, partial curve, poor fit]
5 | O=C1C(c2ccccc2)C(c2ccccc2)NC(c2ccccc2)C1c1ccccc1 (stereo not drawn) | 0.0316 µM [falling, full curve]
6 | COc1ccc(S(=O)(=O)N2CCCCC2)cc1 | 7.94 µM [falling, partial curve, poor fit]
7 | O=C(Nc1ccc2c(c1)OCO2)Oc1ccccc1 | 5.62 µM [rising, single point]
8 | O=C(Nc1cccc(-c2nc3ccccc3[nH]2)c1)c1ccccc1F | 3.16 µM [falling, single point]
9 | COC(=O)c1ccc(COc2ccc(-c3nn[nH]n3)cc2)cc1 | 3.98 µM [rising, full curve]
10 | CCCC/C(O)=C1\C(=O)CC(C)(C)CC1=Nc1ccc(OC)cc1 | 0.398 µM [rising, partial curve, poor fit]
11 | CC(/C=C/c1ccccc1)=N\NC(=O)C1CC1(C)c1ccccc1 (stereo not drawn) | 0.316 µM [falling, full curve, poor fit]
12 | Cc1cc(N2C(=O)C(O)=C(C(=O)c3cccs3)C2c2ccccc2)no1 (stereo not drawn) | 10 µM [rising, partial curve]
13 | CCc1c(C(=O)N/N=C/c2ccc(C)o2)csc1C | 0.126 µM [rising, single point]
14 | Cc1sc2ncnc(Sc3nc4ccccc4s3)c2c1C | 35.5 µM [rising, single point]
15 | N#Cc1cnn2c1nc(N1CCOCC1)c1ccccc12 | 0.794 µM [rising, single point]
16 | COc1ccc(CCNC(=O)CSc2nnc(CNc3ccc(Cl)cc3)o2)cc1OC | 0.398 µM [rising, full curve]
17 | COc1ccccc1OCC(=O)NCCNC(=O)COc1ccccc1OC | 6.31 µM [falling, single point]
18 | CC(C(=O)Nc1ccc(F)c(F)c1F)N1CCCCCC1 (stereo not drawn) | 22.4 µM [rising, single point]
19 | CCSc1nnc(NC(=O)C2CCCCC2)s1 | 7.94 µM [falling, partial curve, poor fit]
20 | O=[N+]([O-])c1cc(C(F)(F)F)ccc1Sc1nccn1Cc1ccccc1 | 2 µM [rising, full curve, poor fit]
21 | Cc1cccc(C)c1OCC(=O)Nc1c(C(=O)c2ccccc2)oc2ccccc12 | 25.1 µM [rising, single point]
22 | O=C(O)c1ccc(Nc2nc3ccccc3c3nncn23)cc1 | 6.31 µM [falling, single point]

Row | SMILES | AC50
23 | Cn1nc(-c2ccc(OCC(=O)Nc3cccc(C(F)(F)F)c3)cc2)c2ccccc2c1=O | 0.0794 µM [falling, single point]
24 | O=[N+]([O-])c1cccc2ccc(/C=C/c3ccc(Cl)cc3)nc12 | 25.1 µM [falling, single point]
25 | COc1ccc(-c2noc(CCCOc3ccccc3)n2)cc1OC | 31.6 µM [rising, single point]
26 | COc1cccc(CNc2nc3nc4c(c(=O)n3[nH]2)CCC4)c1 | 5.01 µM [rising, partial curve, poor fit]
27 | CCOC(=O)CNC(=O)Cn1cnc2ccc(S(=O)(=O)N3CCC(C)CC3)cc2c1=O | 5.01 µM [falling, single point]
28 | CSc1cccc(NC(=O)c2c(Cl)cnn2C)c1 | 6.31 µM [rising, single point]
29 | O=C(/C=C/c1ccccc1Cl)NCCc1ccccc1 | 0.316 µM [rising, full curve, poor fit]
30 | CCn1c(CSc2nnc(-c3ccoc3C)n2C)nc2cc(S(=O)(=O)N(C)C)ccc21 | 0.0316 µM [falling, full curve, poor fit]
31 | CCC(Oc1ccccc1)C(=O)Nc1ccc(S(=O)(=O)NCC2CCCO2)cc1 (stereo not drawn) | 0.0158 µM [rising, full curve, poor fit]
32 | CCNCCC(=O)N1c2ccccc2Sc2ccc(NC(=O)OCC)cc21 | 0.0501 µM [falling, full curve, poor fit]
33 | CCOC(=O)C1CCCN(C(=O)c2cnn3c(C(F)(F)F)cc(-c4ccccc4)nc23)C1 (stereo not drawn) | 0.00501 µM [falling, full curve, poor fit]
34 | Cc1nnc(NC(=O)c2ccc3ccccc3c2)o1 | 0.794 µM [rising, full curve, poor fit]
35 | O=C(c1ccco1)n1nc(-c2ccc(Cl)cc2)nc1NCc1ccccc1 | 3.55 µM [rising, single point]
36 | CCCSc1nnc(Cc2cc(=O)[nH]c(=O)[nH]2)n1-c1cc(C)ccc1C | 31.6 µM [rising, partial curve]
37 | CCOc1ccccc1OCCn1ncc2ccc(OC)c(OC)c2c1=O | 0.0501 µM [rising, full curve, poor fit]
38 | COc1ccc(NC(=O)c2ccccn2)cc1 | 7.94 µM [falling, partial curve]
39 | CC(C)NC(=O)CSc1nc(-c2cccs2)cc(-c2ccccc2)c1C#N | 25.1 µM [rising, single point]
40 | O=c1cc(O)cc(/C=C\c2ccc(O)c(O)c2)o1 | 12.6 µM [falling, partial curve, poor fit]
41 | COc1ccc(N2CCN(Cc3oc(CO)cc(=O)c3O)CC2)cc1 | 0.794 µM [falling, full curve, poor fit]
42 | COc1cccc(CSc2nnc(-c3ccc(F)cc3)o2)c1 | 11.2 µM [falling, partial curve]
43 | COc1ccc(/C=C2/SC(=O)N(CCC(=O)Nc3ccccc3)C2=O)cc1OC | 31.6 µM [rising, single point]

No new results follow: an excerpt of the list.
Row | SMILES | AC50
13 | CCc1c(C(=O)N/N=C/c2ccc(C)o2)csc1C | 0.126 µM [rising, single point]
14 | Cc1sc2ncnc(Sc3nc4ccccc4s3)c2c1C | 35.5 µM [rising, single point]

Reference: PubChem BioAssay AID901 (National Center for Advancing Translational Sciences (NCATS), 2007)
